Laboratory results: the supplement of paper PMC10849652
The list shows a part of the results.

Sequences of proteins named here, by UniProt entry; tags and fusion partners are left off. A change or cut given only in a name is not applied to a line headed by its entry.
UniProt A5A3E0, whole entry, looked up: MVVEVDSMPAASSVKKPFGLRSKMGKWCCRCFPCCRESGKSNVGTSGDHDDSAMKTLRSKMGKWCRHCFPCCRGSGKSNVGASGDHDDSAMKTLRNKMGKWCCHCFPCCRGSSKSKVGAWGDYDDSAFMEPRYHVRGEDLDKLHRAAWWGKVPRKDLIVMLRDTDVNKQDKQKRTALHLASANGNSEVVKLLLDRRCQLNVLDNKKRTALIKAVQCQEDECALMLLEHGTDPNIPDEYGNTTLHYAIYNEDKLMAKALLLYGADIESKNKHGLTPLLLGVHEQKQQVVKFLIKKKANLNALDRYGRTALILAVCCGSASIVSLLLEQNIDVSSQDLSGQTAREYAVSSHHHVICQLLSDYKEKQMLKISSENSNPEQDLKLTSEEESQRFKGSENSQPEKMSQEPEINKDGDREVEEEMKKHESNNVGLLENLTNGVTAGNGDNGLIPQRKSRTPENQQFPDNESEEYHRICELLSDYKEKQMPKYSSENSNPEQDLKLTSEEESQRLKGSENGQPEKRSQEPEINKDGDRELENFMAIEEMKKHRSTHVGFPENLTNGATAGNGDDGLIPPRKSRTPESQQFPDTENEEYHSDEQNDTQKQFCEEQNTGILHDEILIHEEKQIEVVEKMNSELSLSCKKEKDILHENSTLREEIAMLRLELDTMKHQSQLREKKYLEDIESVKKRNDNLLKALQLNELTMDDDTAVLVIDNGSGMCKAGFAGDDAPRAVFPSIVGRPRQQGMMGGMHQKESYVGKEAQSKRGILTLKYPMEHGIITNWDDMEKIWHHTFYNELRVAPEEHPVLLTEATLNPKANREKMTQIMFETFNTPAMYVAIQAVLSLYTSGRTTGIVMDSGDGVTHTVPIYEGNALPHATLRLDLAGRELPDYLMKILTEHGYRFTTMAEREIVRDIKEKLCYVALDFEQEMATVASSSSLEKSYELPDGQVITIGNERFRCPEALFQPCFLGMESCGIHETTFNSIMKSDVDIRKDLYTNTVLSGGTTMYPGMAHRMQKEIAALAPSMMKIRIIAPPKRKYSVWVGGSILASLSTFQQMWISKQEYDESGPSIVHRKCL
UniProt Q14181: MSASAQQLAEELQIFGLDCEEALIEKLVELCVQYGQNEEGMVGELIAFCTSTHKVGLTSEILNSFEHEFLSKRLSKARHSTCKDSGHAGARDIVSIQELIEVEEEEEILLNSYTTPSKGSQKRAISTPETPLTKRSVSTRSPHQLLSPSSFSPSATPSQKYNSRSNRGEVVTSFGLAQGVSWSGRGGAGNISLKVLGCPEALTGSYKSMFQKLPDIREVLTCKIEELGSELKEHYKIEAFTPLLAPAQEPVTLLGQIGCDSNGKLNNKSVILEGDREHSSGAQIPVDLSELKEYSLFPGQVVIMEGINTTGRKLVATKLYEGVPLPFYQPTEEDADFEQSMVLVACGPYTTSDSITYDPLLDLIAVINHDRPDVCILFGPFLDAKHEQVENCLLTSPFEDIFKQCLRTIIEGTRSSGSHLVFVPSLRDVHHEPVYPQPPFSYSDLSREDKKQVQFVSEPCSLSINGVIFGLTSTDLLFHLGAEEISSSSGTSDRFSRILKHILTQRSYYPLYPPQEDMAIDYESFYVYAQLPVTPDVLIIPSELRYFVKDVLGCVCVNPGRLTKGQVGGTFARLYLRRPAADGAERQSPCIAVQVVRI
UniProt Q969H6: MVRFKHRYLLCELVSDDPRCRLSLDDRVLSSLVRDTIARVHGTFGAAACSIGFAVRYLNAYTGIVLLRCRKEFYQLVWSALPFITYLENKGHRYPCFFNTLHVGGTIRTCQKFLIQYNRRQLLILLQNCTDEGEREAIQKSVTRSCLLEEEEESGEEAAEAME
UniProt Q8N490: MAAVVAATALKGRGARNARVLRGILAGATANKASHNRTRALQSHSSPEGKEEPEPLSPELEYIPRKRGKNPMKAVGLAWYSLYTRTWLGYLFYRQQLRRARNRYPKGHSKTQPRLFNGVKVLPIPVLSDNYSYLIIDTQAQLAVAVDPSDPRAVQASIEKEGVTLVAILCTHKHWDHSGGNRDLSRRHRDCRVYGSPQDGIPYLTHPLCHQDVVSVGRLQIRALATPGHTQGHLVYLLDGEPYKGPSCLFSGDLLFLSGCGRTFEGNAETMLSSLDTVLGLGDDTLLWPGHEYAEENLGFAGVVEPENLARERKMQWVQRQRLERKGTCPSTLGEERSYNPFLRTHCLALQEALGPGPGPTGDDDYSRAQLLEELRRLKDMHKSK
UniProt Q99541: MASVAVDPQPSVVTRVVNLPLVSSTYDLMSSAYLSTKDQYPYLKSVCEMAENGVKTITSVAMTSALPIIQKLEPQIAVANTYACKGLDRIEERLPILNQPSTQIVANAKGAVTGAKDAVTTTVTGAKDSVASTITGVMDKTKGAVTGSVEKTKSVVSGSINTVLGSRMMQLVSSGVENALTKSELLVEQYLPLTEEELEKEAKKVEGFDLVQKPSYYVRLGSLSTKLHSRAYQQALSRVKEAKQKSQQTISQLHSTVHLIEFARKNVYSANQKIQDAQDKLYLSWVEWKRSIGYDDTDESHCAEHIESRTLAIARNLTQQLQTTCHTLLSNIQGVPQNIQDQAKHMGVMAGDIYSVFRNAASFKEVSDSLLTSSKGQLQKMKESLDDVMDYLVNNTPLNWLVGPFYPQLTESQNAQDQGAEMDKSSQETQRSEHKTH
UniProt P13797: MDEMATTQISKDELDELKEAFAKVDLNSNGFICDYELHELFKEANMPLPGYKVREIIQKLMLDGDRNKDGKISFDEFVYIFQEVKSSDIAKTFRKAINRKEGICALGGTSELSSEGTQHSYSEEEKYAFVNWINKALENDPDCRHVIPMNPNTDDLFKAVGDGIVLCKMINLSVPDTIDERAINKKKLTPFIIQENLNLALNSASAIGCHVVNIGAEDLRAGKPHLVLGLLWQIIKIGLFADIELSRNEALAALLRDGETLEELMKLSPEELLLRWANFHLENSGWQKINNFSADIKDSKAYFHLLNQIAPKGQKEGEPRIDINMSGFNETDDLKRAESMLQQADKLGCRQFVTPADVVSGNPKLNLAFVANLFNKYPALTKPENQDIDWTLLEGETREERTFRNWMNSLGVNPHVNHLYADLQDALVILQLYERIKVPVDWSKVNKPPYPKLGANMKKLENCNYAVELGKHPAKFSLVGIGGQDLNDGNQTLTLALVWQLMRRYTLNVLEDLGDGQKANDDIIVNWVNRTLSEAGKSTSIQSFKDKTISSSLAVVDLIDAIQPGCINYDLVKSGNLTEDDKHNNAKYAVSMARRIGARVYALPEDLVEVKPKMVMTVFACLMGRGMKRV
UniProt Q9BT43: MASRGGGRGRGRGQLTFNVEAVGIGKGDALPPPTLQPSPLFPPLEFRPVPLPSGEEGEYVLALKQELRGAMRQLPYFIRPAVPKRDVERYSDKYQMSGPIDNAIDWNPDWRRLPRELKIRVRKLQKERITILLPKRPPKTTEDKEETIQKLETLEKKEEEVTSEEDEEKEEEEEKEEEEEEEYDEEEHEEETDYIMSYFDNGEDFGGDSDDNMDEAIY
UniProt O60664: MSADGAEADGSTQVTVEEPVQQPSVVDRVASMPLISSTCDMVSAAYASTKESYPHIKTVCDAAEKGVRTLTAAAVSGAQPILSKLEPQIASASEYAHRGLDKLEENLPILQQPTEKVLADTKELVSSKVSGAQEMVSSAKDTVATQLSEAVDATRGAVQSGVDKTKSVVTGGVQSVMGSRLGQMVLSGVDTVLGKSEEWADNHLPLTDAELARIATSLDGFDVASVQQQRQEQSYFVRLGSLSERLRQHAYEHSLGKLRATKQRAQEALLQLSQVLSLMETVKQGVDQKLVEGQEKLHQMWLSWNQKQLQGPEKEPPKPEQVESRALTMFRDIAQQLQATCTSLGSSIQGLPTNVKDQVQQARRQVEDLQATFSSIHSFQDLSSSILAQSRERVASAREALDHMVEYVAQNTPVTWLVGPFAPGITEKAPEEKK
UniProt Q8WZA1: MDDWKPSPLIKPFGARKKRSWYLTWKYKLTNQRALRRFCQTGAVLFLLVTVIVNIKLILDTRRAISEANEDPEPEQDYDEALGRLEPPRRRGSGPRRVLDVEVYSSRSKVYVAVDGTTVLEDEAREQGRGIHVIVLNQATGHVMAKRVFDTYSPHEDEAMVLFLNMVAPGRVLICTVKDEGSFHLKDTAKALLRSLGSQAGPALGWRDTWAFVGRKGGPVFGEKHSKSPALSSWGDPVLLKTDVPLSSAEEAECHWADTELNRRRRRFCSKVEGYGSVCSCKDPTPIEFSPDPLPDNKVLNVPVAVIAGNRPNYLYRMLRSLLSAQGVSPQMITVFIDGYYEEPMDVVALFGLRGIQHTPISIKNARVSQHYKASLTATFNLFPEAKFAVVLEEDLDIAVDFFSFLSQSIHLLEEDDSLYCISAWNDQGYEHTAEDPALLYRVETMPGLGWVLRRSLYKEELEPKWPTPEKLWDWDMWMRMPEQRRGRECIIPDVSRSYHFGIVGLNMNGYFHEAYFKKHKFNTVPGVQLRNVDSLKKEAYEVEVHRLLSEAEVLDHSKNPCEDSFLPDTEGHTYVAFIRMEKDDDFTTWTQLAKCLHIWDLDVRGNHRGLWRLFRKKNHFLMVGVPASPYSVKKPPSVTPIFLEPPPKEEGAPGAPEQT
UniProt Q9NR33: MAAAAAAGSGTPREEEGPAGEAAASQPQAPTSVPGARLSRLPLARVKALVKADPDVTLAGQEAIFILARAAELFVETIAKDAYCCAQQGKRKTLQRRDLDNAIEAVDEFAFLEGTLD
UniProt Q9H1D9: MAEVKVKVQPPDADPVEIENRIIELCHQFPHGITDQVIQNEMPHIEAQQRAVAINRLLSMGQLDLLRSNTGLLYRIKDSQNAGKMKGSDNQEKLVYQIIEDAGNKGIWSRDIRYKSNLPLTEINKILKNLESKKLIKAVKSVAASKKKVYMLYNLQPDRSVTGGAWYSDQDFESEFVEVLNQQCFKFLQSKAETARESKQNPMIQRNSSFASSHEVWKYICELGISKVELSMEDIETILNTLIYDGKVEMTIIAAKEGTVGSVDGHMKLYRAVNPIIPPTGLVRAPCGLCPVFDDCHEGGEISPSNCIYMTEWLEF
UniProt Q9UHN1: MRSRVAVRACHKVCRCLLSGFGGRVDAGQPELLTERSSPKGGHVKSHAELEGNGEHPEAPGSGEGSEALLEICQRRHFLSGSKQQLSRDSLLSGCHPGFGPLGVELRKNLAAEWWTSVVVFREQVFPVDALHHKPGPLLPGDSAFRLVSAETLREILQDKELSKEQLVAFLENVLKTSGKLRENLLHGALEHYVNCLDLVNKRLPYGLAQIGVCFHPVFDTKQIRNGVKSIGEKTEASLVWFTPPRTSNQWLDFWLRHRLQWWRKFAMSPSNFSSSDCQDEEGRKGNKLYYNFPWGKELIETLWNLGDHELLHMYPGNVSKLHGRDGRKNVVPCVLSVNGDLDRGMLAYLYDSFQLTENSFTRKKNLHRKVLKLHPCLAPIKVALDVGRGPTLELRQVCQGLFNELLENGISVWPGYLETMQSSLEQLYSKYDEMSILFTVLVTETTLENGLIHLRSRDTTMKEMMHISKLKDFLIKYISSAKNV
UniProt P05423: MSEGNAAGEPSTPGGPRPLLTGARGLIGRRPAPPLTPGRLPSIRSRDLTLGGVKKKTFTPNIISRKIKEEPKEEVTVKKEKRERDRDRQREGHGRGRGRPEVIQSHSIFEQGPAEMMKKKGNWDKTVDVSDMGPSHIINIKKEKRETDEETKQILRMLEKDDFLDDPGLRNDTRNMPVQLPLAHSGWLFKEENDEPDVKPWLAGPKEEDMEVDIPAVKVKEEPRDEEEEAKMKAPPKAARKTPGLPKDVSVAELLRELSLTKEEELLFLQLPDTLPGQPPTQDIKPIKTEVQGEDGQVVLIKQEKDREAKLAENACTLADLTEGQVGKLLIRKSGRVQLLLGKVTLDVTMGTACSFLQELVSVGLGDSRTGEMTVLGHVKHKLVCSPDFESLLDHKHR
UniProt Q9GZS1, whole entry, looked up: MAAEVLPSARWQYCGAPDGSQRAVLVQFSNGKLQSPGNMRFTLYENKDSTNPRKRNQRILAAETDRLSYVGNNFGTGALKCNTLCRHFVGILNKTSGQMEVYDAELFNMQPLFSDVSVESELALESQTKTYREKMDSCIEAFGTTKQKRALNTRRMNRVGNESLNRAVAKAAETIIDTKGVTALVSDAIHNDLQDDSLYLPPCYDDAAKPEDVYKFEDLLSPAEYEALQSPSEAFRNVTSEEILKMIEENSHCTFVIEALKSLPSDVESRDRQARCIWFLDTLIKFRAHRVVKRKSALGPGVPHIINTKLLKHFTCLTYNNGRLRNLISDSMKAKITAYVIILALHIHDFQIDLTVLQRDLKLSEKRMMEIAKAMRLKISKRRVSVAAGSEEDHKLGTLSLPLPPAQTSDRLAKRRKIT

What was measured:
Test in all cases: log2 fold change, soluble protein after heating vs DMSO (PISA); higher = thermal stabilisation; K562 lysate, 10 uM; active = over 0.2 and 3.5 SD of the protein, either way, in both replicates (recomputed)
vemurafenib = compound: CCCS(=O)(=O)Nc1ccc(F)c(C(=O)c2c[nH]c3ncc(-c4ccc(Cl)cc4)cc23)c1F [vemurafenib]
Summary of the method: (§1)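 Following dounce homogenisation of K562 pellets in PBS pH 7.4 with 1 mM MgCl2, crude extract at 1 mg/mL protein was incubated for 30 min with 10 μM compound. Aliquots were then heated for 3 min over 48°C-58°C and pooled, NP-40 was added to 0.5% at 4°C, and soluble protein was recovered as the supernatant at 21,000xg for 90 min. Channel-sum-equalised TMTpro 16plex LC-MS/MS quantified this protein. Each value, from duplicates, is a log-two fold change in thermal stability relative to solvent controls.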

[1] = compound: CCCS(=O)(=O)Nc1ccc(F)c(C(=O)c2c[nH]c3ncc(Cl)cc23)c1F
Summary of the method: as §1

barasertib = compound: CCN(CCCOc1ccc2c(Nc3cc(CC(=O)Nc4cccc(F)c4)[nH]n3)ncnc2c1)CCOP(=O)(O)O [barasertib]
Summary of the method: as §1

[2] = compound: CC[C@@H]1C(=O)N(C)c2cnc(Nc3ccc(C(=O)NC4CCN(C)CC4)cc3OC)nc2N1C1CCCC1
Summary of the method: as §1

volasertib = compound: CC[C@@H]1C(=O)N(C)c2cnc(Nc3ccc(C(=O)N[C@H]4CC[C@H](N5CCN(CC6CC6)CC5)CC4)cc3OC)nc2N1C(C)C [volasertib]
Summary of the method: as §1

[3] = compound: CCn1c(C(=O)N(C2CC2)C2CC2)cc2c3c(ncn3C)c(Nc3cc(C)n(C)n3)nc21
Summary of the method: as §1

[4] = compound: CCn1cc(-c2ccnc3[nH]c(-c4cccc(CN(C)C)c4)cc23)c(-c2ccc(NC(=O)N(C)C)cc2)n1
Summary of the method: as §1

[5] = compound: CN1CCC(CNc2ccc3ncc(-c4cccc(OC(F)(F)F)c4)n3n2)CC1
Summary of the method: as §1

saracatinib = compound: CN1CCN(CCOc2cc(OC3CCOCC3)c3c(Nc4c(Cl)ccc5c4OCO5)ncnc3c2)CC1 [saracatinib]
Summary of the method: as §1

sotrastaurin = compound: CN1CCN(c2nc(C3=C(c4c[nH]c5ccccc45)C(=O)NC3=O)c3ccccc3n2)CC1 [sotrastaurin]
Summary of the method: as §1

alvocidib = compound: CN1CC[C@H](c2c(O)cc(O)c3c(=O)cc(-c4ccccc4Cl)oc23)[C@H](O)C1 [alvocidib]
Summary of the method: as §1

Tubastatin A = compound: CN1CCc2c(c3ccccc3n2Cc2ccc(C(=O)NO)cc2)C1 [Tubastatin A]
Summary of the method: as §1

[6] = compound: CNC(=O)C1=CC=CC=C1NC2=NC(=NC=C2Cl)NC3=C(C=C(C=C3)N4CCOCC4)OC
Summary of the method: as §1

defactinib = compound: CNC(=O)c1ccc(Nc2ncc(C(F)(F)F)c(NCc3nccnc3N(C)S(C)(=O)=O)n2)cc1 [defactinib]
Summary of the method: as §1

[7] = compound: CNc1nc(-c2ccc3c(N)n[nH]c3c2)cc(N2C[C@@H](C(=O)NC3CCCCC3)CC[C@H]2C)n1
Summary of the method: as §1

encorafenib = compound: COC(=O)N[C@@H](C)CNc1nccc(-c2cn(C(C)C)nc2-c2cc(Cl)cc(NS(C)(=O)=O)c2F)n1 [encorafenib]
Summary of the method: as §1

[8] = compound: COC(=O)[C@H](CCSC)NC(=O)C1=C(C=C(C=C1)NC[C@H](CS)N)C2=CC=CC=C2
Summary of the method: as §1

alisertib = compound: COc1cc(Nc2ncc3c(n2)-c2ccc(Cl)cc2C(c2c(F)cccc2OC)=NC3)ccc1C(=O)O [alisertib]
Summary of the method: as §1

[9] = compound: COc1cc2nc(-c3cc(F)ccc3O)nc(N[C@@H]3CNC[C@H]3C(C)(C)O)c2cc1OC
Summary of the method: as §1

gefitinib = compound: COc1cc2ncnc(Nc3ccc(F)c(Cl)c3)c2cc1OCCCN1CCOCC1 [gefitinib]
Summary of the method: as §1

Row | Target | log2 fold change (vemurafenib) | log2 fold change [1] | log2 fold change (barasertib) | log2 fold change [2] | log2 fold change (volasertib) | log2 fold change [3] | log2 fold change [4] | log2 fold change [5] | log2 fold change (saracatinib) | log2 fold change (sotrastaurin) | log2 fold change (alvocidib) | log2 fold change (Tubastatin A) | log2 fold change [6] | log2 fold change (defactinib) | log2 fold change [7] | log2 fold change (encorafenib) | log2 fold change [8] | log2 fold change (alisertib) | log2 fold change [9] | log2 fold change (gefitinib)
1 | POTEF (UniProt A5A3E0) | inactive: 0.016 | inactive: 0.051 | inactive: 0.014 | inactive: 0.065 | inactive: -0.099 | inactive: 0.019 | inactive: -0.018 | inactive: 0.013 | inactive: 0.018 | inactive: 0.01 | inactive: -0.002 | inactive: -0.018 | inactive: 0.066 | inactive: 0.041 | inactive: -0.001 | inactive: 0.005 | inactive: 0.028 | inactive: -0.076 | inactive: 0.014 | inactive: -0.026
2 | POLA2 (UniProt Q14181) | inactive: -0.008 | inactive: -0.026 | inactive: -0.003 | inactive: 0.027 | inactive: 0.009 | inactive: 0.012 | inactive: 0.087 | inactive: -0.036 | inactive: 0.009 | inactive: 0.009 | inactive: 0.009 | inactive: -0.029 | inactive: -0.021 | inactive: 0.001 | inactive: 0.036 | inactive: 0.046 | inactive: 0.007 | inactive: 0 | inactive: 0.016 | inactive: -0.001
3 | POP5 (UniProt Q969H6) | inactive: -0.028 | inactive: 0.043 | inactive: -0.019 | inactive: -0.029 | inactive: 0.022 | inactive: 0.099 | inactive: -0.061 | inactive: 0.048 | inactive: 0.036 | inactive: -0.016 | inactive: 0.02 | inactive: -0.001 | inactive: 0.008 | inactive: -0.039 | inactive: 0.033 | inactive: 0.038 | inactive: -0.087 | inactive: -0.051 | inactive: 0.018 | inactive: -0.002
4 | PNKD (UniProt Q8N490) | inactive: 0.075 | inactive: 0.05 | inactive: 0.06 | inactive: -0.059 | inactive: -0.007 | inactive: 0.017 | inactive: 0.094 | inactive: -0.006 | inactive: 0.056 | inactive: -0.028 | inactive: 0.062 | inactive: 0.054 | inactive: 0.017 | inactive: 0.001 | inactive: 0.038 | inactive: 0.113 | inactive: 0.037 | inactive: -0.008 | inactive: -0.006 | inactive: 0.005
5 | PLIN2 (UniProt Q99541) | inactive: 0.014 | inactive: -0.01 | inactive: 0.073 | inactive: 0.033 | inactive: 0.003 | inactive: 0.048 | inactive: 0.033 | inactive: -0.181 | inactive: 0.019 | inactive: 0.007 | inactive: -0.008 | inactive: -0.107 | inactive: -0.014 | inactive: 0.049 | inactive: 0.002 | inactive: 0.061 | inactive: -0.107 | inactive: 0.044 | inactive: -0.071 | inactive: 0.104
6 | PLS3 (UniProt P13797) | inactive: 0 | inactive: -0.019 | inactive: -0.007 | inactive: -0.006 | inactive: 0.011 | inactive: -0.008 | inactive: -0.158 | inactive: 0.147 | inactive: -0.005 | inactive: 0.001 | inactive: -0.099 | inactive: 0.023 | inactive: 0.019 | inactive: -0.033 | inactive: 0.051 | inactive: -0.011 | inactive: 0.004 | inactive: 0.004 | inactive: 0.019 | inactive: -0.004
7 | POLR3GL (UniProt Q9BT43) | inactive: -0.038 | inactive: -0.037 | inactive: -0.065 | inactive: 0.017 | inactive: 0 | inactive: -0.108 | inactive: 0.116 | inactive: -0.04 | inactive: -0.062 | inactive: 0.008 | inactive: 0.074 | inactive: 0.092 | inactive: 0.106 | inactive: -0.023 | inactive: 0.15 | inactive: 0.016 | inactive: 0.002 | inactive: -0.018 | inactive: 0.035 | inactive: -0.141
8 | PLIN3 (UniProt O60664) | inactive: 0.011 | inactive: 0.01 | inactive: 0.027 | inactive: 0.007 | inactive: 0.038 | inactive: 0.013 | inactive: 0.054 | inactive: -0.045 | inactive: -0.002 | inactive: 0.01 | inactive: -0.007 | inactive: 0.048 | inactive: -0.012 | inactive: 0.035 | inactive: 0.004 | inactive: 0.019 | inactive: -0.019 | inactive: -0.003 | inactive: 0.016 | inactive: -0.017
9 | PLXNA1 (UniProt Q9UIW2) | inactive: 0.025 | inactive: -0.003 | inactive: 0.029 | inactive: -0.013 | inactive: -0.007 | inactive: -0.012 | inactive: -0.026 | inactive: 0.019 | inactive: -0.01 | inactive: 0.02 | inactive: -0.009 | inactive: 0.024 | inactive: -0.031 | inactive: -0.005 | inactive: -0.009 | inactive: -0.002 | inactive: -0.024 | inactive: -0.022 | inactive: 0.005 | inactive: 0.01
10 | POMGNT1 isoform 2 (UniProt Q8WZA1) | inactive: 0.059 | inactive: 0.029 | inactive: -0.101 | inactive: -0.142 | inactive: 0.044 | inactive: -0.065 | inactive: -0.076 | inactive: 0.024 | inactive: 0.117 | inactive: 0.032 | inactive: -0.012 | inactive: -0.061 | inactive: 0.043 | inactive: -0.157 | inactive: 0.163 | inactive: -0.072 | inactive: -0.031 | inactive: 0.051 | inactive: -0.005 | inactive: 0.048
11 | POLE4 (UniProt Q9NR33) | inactive: 0.048 | inactive: 0.023 | inactive: 0.115 | inactive: -0.056 | inactive: 0.007 | inactive: 0.007 | inactive: -0.103 | inactive: -0.031 | inactive: -0.041 | inactive: -0.024 | inactive: 0.033 | inactive: 0.009 | inactive: 0.094 | inactive: 0.05 | inactive: 0.06 | inactive: 0.065 | inactive: -0.033 | inactive: 0 | inactive: -0.032 | inactive: -0.128
12 | POLR2F (UniProt P61218) | inactive: 0.077 | inactive: -0.018 | inactive: 0.034 | inactive: -0.043 | inactive: 0.036 | inactive: 0.078 | active: 1.25 | inactive: -0.211 | inactive: -0.042 | inactive: 0.02 | inactive: 0.272 | inactive: -0.07 | inactive: 0.031 | inactive: 0.085 | inactive: 0.2 | inactive: -0.036 | inactive: -0.02 | inactive: 0.065 | inactive: 0.003 | inactive: -0.097
13 | POLR3F (UniProt Q9H1D9) | inactive: 0.039 | inactive: -0.021 | inactive: -0.008 | inactive: -0.037 | inactive: -0.018 | inactive: -0.017 | inactive: 0.072 | inactive: -0.01 | inactive: 0.016 | inactive: 0.043 | inactive: -0.016 | inactive: 0.014 | inactive: -0.013 | inactive: -0.015 | inactive: 0.03 | inactive: -0.002 | inactive: -0.023 | inactive: -0.009 | inactive: -0.002 | inactive: 0.003
14 | POLG2 (UniProt Q9UHN1) | inactive: 0.018 | inactive: 0.026 | inactive: -0.05 | inactive: 0.077 | inactive: 0.007 | inactive: -0.003 | inactive: 0.016 | inactive: 0.009 | inactive: -0.018 | inactive: 0.015 | inactive: 0 | inactive: 0.025 | inactive: 0.025 | inactive: 0.012 | inactive: 0.058 | inactive: 0.013 | inactive: -0.062 | inactive: -0.033 | inactive: 0.021 | inactive: -0.099
15 | POLR3D (UniProt P05423) | inactive: -0.019 | inactive: -0.033 | inactive: -0.002 | inactive: 0.025 | inactive: 0.012 | inactive: 0.015 | inactive: -0.135 | inactive: 0.105 | inactive: 0.031 | inactive: 0.024 | inactive: -0.058 | inactive: -0.029 | inactive: -0.007 | inactive: 0.032 | inactive: 0.139 | inactive: 0.015 | inactive: 0.032 | inactive: -0.01 | inactive: 0.028 | inactive: 0.008
16 | POLR1E (UniProt Q9GZS1) | inactive: -0.03 | inactive: 0.006 | inactive: 0.018 | inactive: -0.037 | inactive: -0.004 | inactive: -0.015 | inactive: -0.021 | inactive: 0.002 | inactive: 0.017 | inactive: 0.029 | inactive: 0.029 | inactive: -0.087 | inactive: 0.026 | inactive: -0.046 | inactive: 0.029 | inactive: 0.049 | inactive: 0.102 | inactive: 0 | inactive: -0.005 | inactive: 0.014

Already shown: entries from further up.
Row | Target | log2 fold change (vemurafenib) | log2 fold change [1] | log2 fold change (barasertib) | log2 fold change [2] | log2 fold change (volasertib) | log2 fold change [3] | log2 fold change [4] | log2 fold change [5] | log2 fold change (saracatinib) | log2 fold change (sotrastaurin) | log2 fold change (alvocidib) | log2 fold change (Tubastatin A) | log2 fold change [6] | log2 fold change (defactinib) | log2 fold change [7] | log2 fold change (encorafenib) | log2 fold change [8] | log2 fold change (alisertib) | log2 fold change [9] | log2 fold change (gefitinib)
4 | PNKD (UniProt Q8N490) | inactive: 0.075 | inactive: 0.05 | inactive: 0.06 | inactive: -0.059 | inactive: -0.007 | inactive: 0.017 | inactive: 0.094 | inactive: -0.006 | inactive: 0.056 | inactive: -0.028 | inactive: 0.062 | inactive: 0.054 | inactive: 0.017 | inactive: 0.001 | inactive: 0.038 | inactive: 0.113 | inactive: 0.037 | inactive: -0.008 | inactive: -0.006 | inactive: 0.005
5 | PLIN2 (UniProt Q99541) | inactive: 0.014 | inactive: -0.01 | inactive: 0.073 | inactive: 0.033 | inactive: 0.003 | inactive: 0.048 | inactive: 0.033 | inactive: -0.181 | inactive: 0.019 | inactive: 0.007 | inactive: -0.008 | inactive: -0.107 | inactive: -0.014 | inactive: 0.049 | inactive: 0.002 | inactive: 0.061 | inactive: -0.107 | inactive: 0.044 | inactive: -0.071 | inactive: 0.104
